Measurements published in PubChem BioAssay AID504467 (National Center for Advancing Translational Sciences (NCATS), 2011).
Screen size: about 330,000 compounds; about 7,700 (2.3%) were called active. The inconclusive results got no clear call from the source; some entries with a clear call stand among them for comparison. Calls follow the shape of the dose curve; as a rule, active = well fitted inhibition curve with a large enough effect; inconclusive = small, poorly fitted or top-dose-only effect, or effect the other way; inactive = flat fitted curve, though single readings scatter. Potencies of inconclusive entries are doubtful fits and often do not repeat.

Test: qHTS screen for small molecules that inhibit ELG1-dependent DNA repair in human embryonic kidney (HEK293T) cells expressing luciferase-tagged ELG1; also: nearly all actives have a fitted effect of over 55% in size
Conditions: HEK293T ELG1-luciferase reporter, luminescence, 16 h, DNA damage induced by 5-fluorouridine; activity change, negative = inhibition: at 46.1 µM (top of the series)
Outline: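 DMSO vehicle served as the neutral condition. Each well held 2,000 cells given 5-fluorouridine plus compound; after 16 hr at 37 °C/5% CO2, ONE-Glo was added and luciferase measured 30 min later.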
% is scaled to controls: 0 for no effect and ±100 for the full control effect; potency is read from the fitted curve at half-maximal effect.

Question: For `CC(=O)Nc1nonc1-c1nc2ccccc2n1CCC(C)C`, which Potency is on record?
Answer: The Potency was inconclusive: 23.1 µM [inhibitor, single point].

Question: For `CCOc1cc(NC(=O)C2CC2)c(OCC)cc1NC(=O)c1ccccn1`, which Potency is on record?
Answer: Its Potency is inconclusive: 20.6 µM [inhibitor, single point].

Question: With `Cn1nc(CC(=O)Nc2ccc3c(c2)CCC3)c2ccccc2c1=O` as the compound, how does the Potency read?
Answer: The Potency was active: 0.517 µM.

Question: With `Cn1c(CC(=O)NCCO)c(Sc2ccccc2)c2ccccc21` as the compound, how does the Potency read?
Answer: The Potency was inconclusive: 1.03 µM [inhibitor, partial curve, poor fit].

Question: With `C#CCOCCOCCOCCNc1nc(N2CCN(C(=O)C([C@@H](C)CC)n3cc(C(N)CO)nn3)CC2)nc(N2CCN(C(=O)[C@H](CCC(=O)O)n3cc(C(N)[C@H](C)CC)nn3)CC2)n1` (stereo not given in full) as the compound, how does the Potency read?
Answer: The Potency was inconclusive: 29.1 µM [activator, single point].

Question: With `COc1ccc(N2CCN(C(=O)CSc3nnc4c(C)cc5ccccc5n34)CC2)cc1` as the compound, how does the Potency read?
Answer: Its Potency is active: 23.1 µM.

Question: For `Fc1ccc(NC(=S)Nc2cccc(Cl)c2)cc1`, which “activity change, negative = inhibition” value is on record?
Answer: The value was inactive: -0.157%.

Question: With `COc1ccc(-c2cc3c(nn2)-c2ccccc2C3=O)cc1` as the compound, how does the Potency read?
Answer: The Potency was inconclusive: 0.517 µM [activator, full curve].

Question: With `O=C(Nc1nnc(C2CC2)s1)c1cc(Cl)sc1Cl` as the compound, how does the Potency read?
Answer: The Potency was inconclusive: 14.6 µM [activator, partial curve].

Question: With `COc1cc(CN2CCN(C(=O)c3ccc(-c4ccccc4)cc3)CC2)cc(OC)c1OC` as the compound, how does the Potency read?
Answer: Its Potency is inconclusive: 29.1 µM [activator, single point].

Question: Which Potency does the source give for `O=C(Nc1ccon1)c1cc2c(s1)CCCCCC2` here?
Answer: Its Potency is inconclusive: 2.31 µM [activator, full curve].

Question: For `O=C(Nc1ccc(F)cc1F)c1cc(Cl)sc1Cl`, which Potency is on record?
Answer: The Potency was inconclusive: 29.1 µM [activator, single point].

Question: With `COc1ccc(NC(=O)N(C)C[C@H]2Oc3ccc(NC(=O)CCC(F)(F)F)cc3C(=O)N([C@H](C)CO)C[C@@H]2C)cc1` as the compound, how does the Potency read?
Answer: The Potency was inconclusive: 13 µM [activator, partial curve].

Question: With `COc1ccccc1-c1cc(C(=O)N/N=C\c2cnn(C)c2C)c2ccccc2n1` as the compound, how does the Potency read?
Answer: The Potency was inconclusive: 29.1 µM [inhibitor, single point].

Question: With `O=C(COC(=O)c1cc(S(=O)(=O)N2CCCC2)ccc1O)NCCc1ccccc1` as the compound, how does the “activity change, negative = inhibition” value read?
Answer: The value was inactive: -0.167%.

Question: For `C=C(C)c1cccc(C(C)(C)NC(=O)Nc2ccc(OC)nc2)c1`, which “activity change, negative = inhibition” value is on record?
Answer: Its value is inactive: 0.585%.

Question: For `COC(=O)CSc1nnc(NC(=O)/C=C\c2ccc3c(c2)OCO3)s1`, which “activity change, negative = inhibition” value is on record?
Answer: Its value is inactive: -0.501%.

Question: Which Potency does the source give for `Cc1noc(-c2ccc(C(F)(F)F)cc2)c1NC(=O)Nc1ccc(Cl)cc1` here?
Answer: Its Potency is inconclusive: 13 µM [inhibitor, partial curve].

Question: With `CCOC(=O)c1c(C(C)(C)C)oc2ccc(O)cc12` as the compound, how does the Potency read?
Answer: The Potency was inconclusive: 35.5 µM [activator, single point].

Question: Which Potency does the source give for `Cc1ccc(NC(=O)N(C2CCCCC2)C(C)c2cccnc2)cc1C` (stereo not given) here?
Answer: The Potency was inconclusive: 23.1 µM [activator, single point].

Question: For `COc1cc(CC(=O)Nc2cccc(C(F)(F)F)c2)cc(OC)c1OC`, which Potency is on record?
Answer: Its Potency is inconclusive: 8.2 µM [inhibitor, partial curve].

Question: Which Potency does the source give for `O=C(Cc1cccs1)N(Cc1cccs1)C1(C(=O)NC2CCCC2)CCCCC1` here?
Answer: The Potency was inconclusive: 8.2 µM [inhibitor, partial curve].

Question: For `CCOC(=O)Nc1ccc2c(c1)N(C(=O)CN1CCN(C)CC1)c1ccccc1CC2`, which Potency is on record?
Answer: The Potency was inconclusive: 17.8 µM [inhibitor, single point].

Question: With `COc1cccc(NC(=O)Nc2cccnc2)c1` as the compound, how does the “activity change, negative = inhibition” value read?
Answer: Its value is inactive: -7.07%.

Question: For `CCOC(=O)C1=C(c2ccccc2)NC(=O)NC1c1ccc(O)c(Cl)c1` (stereo not given), which Potency is on record?
Answer: Its Potency is inconclusive: 10 µM [inhibitor, partial curve, poor fit].

Question: With `COc1cc(OC)c(C2N(c3ccc(Cl)c(Cl)c3)C(=O)C3CCCN32)cc1OC` (stereo not given) as the compound, how does the Potency read?
Answer: Its Potency is inconclusive: 29.1 µM [inhibitor, single point].

Question: With `Cc1ccc(C)c(NC(=S)c2ccc3ccccc3n2)c1` as the compound, how does the Potency read?
Answer: Its Potency is inconclusive: 11.6 µM [activator, partial curve].

Question: For `CCOc1nc(NC(=O)NS(=O)(=O)Oc2ccccc2Cl)nc(-c2ccccc2)n1`, which Potency is on record?
Answer: Its Potency is inconclusive: 20.6 µM [activator, single point].

Question: Which Potency does the source give for `Cc1ccc(NC(=O)c2cccs2)cc1[N+](=O)[O-]` here?
Answer: Its Potency is inconclusive: 9.2 µM [activator, partial curve].

Question: For `CCOC(=O)COn1c(=O)c(-c2ccc(C)cc2)[n+]([O-])c2ccccc21`, which Potency is on record?
Answer: The Potency was inconclusive: 23.1 µM [activator, partial curve].

Question: With `CCOC(=O)[C@@H]1[C@H]2COc3ccccc3[C@H]2N2C(=O)N(c3ccccc3)C(=O)[C@]12C` as the compound, how does the Potency read?
Answer: Its Potency is inconclusive: 5.17 µM [activator, partial curve, poor fit].

Question: With `NC(=O)CSc1nc2c(sc(=S)n2-c2ccccc2)c(=O)[nH]1` as the compound, how does the “activity change, negative = inhibition” value read?
Answer: The value was inactive: -2.96%.

Question: For `COc1ccc(NC(=O)CN2C(=O)c3ccccc3S2(=O)=O)cc1S(=O)(=O)N1CCOCC1`, which “activity change, negative = inhibition” value is on record?
Answer: The value was inactive: 9.86%.

Question: Which Potency does the source give for `CCOc1ccc(-c2nc(CCl)cs2)cc1` here?
Answer: The Potency was inconclusive: 9.2 µM [activator, partial curve].

Question: For `COc1ccc(N=C2NN=C(c3ccc4c(c3)OCCO4)CS2)cc1`, which “activity change, negative = inhibition” value is on record?
Answer: Its value is inactive: 14.4%.

Question: For `CCCOc1ccccc1/C=C1/C(=O)ON=C1C`, which Potency is on record?
Answer: Its Potency is inconclusive: 29.1 µM [activator, single point].

Question: For `COc1ccc(-c2nc(SCC(=O)Nc3nccs3)c(-c3ccc(Cl)cc3)[nH]2)cc1`, which Potency is on record?
Answer: Its Potency is inconclusive: 18.4 µM [inhibitor, single point].

Question: For `COc1ccc(/C=N\NC(=O)c2sccc2C)cc1Cn1nc(C)cc1C`, which Potency is on record?
Answer: The Potency was inconclusive: 20.6 µM [activator, partial curve].

Question: Which Potency does the source give for `O=c1[nH]cnc2nn(-c3ccccc3)nc12` here?
Answer: Its Potency is inconclusive: 12.6 µM [activator, partial curve].

Question: With `CCN(CC)C(=O)[C@H]1C[C@H](CC(=O)NCc2ccc(OC)c(OC)c2)C(=O)N2CCc3c([nH]c4ccc(Cl)cc34)[C@]12C` as the compound, how does the Potency read?
Answer: Its Potency is inconclusive: 23.1 µM [inhibitor, partial curve, poor fit].

Question: With `CCC(SC1=Nc2ccccc2C2=NC(CC(C)C)C(=O)N12)C(=O)Nc1ccc2c(c1)OCO2` (stereo not given) as the compound, how does the Potency read?
Answer: Its Potency is inconclusive: 23.1 µM [inhibitor, single point].

Question: For `CCOc1ccccc1/C=N/Nc1ccccc1[N+](=O)[O-]`, which Potency is on record?
Answer: The Potency was inconclusive: 16.4 µM [activator, single point].

Question: For `Cc1cc(C)n2c(Br)c(CSc3nc4ccccc4s3)nc2n1`, which Potency is on record?
Answer: Its Potency is inconclusive: 20.6 µM [activator, partial curve].

Question: With `CN(C)c1ccc(/C=C(\NC(=O)c2ccccc2)C(=O)NCc2cccnc2)cc1` as the compound, how does the “activity change, negative = inhibition” value read?
Answer: The value was inactive: 4.36%.

Question: Which Potency does the source give for `COc1ccc(C2C=C(c3ccc(C)c(C)c3)Nc3ncnn32)c(OC)c1OC` (stereo not given) here?
Answer: Its Potency is inconclusive: 16.4 µM [inhibitor, partial curve, poor fit].

Question: Which “activity change, negative = inhibition” value does the source give for `CC(C)(C)C1=NN(C(=O)c2ccccc2)C(O)(C(C)(C)C)C1` (stereo not given) here?
Answer: The value was inactive: 10.9%.

Question: With `COc1ccc(-c2noc(CN(C)Cc3ccccc3)n2)c(OC)c1OC` as the compound, how does the Potency read?
Answer: The Potency was inconclusive: 29.1 µM [inhibitor, single point].

Question: With `Cc1ccc(-c2nn(Cc3ccccc3)cc2C(=O)NCC2CCCO2)cc1` (stereo not given) as the compound, how does the “activity change, negative = inhibition” value read?
Answer: Its value is inactive: -2.02%.

Question: With `O=[N+]([O-])c1ccc(C=Nc2cccc3ccccc23)s1` as the compound, how does the “activity change, negative = inhibition” value read?
Answer: The value was inactive: 1.26%.

Question: Which Potency does the source give for `C=CCOc1c(CNc2ccc(C(=O)O)cc2)cccc1OCC` here?
Answer: Its Potency is inconclusive: 20.6 µM [activator, single point].

Question: With `O=C(COC(=O)C1CCC(=O)N1)Nc1ccccc1OC(F)F` (stereo not given) as the compound, how does the Potency read?
Answer: The Potency was inconclusive: 13 µM [activator, partial curve, poor fit].

Question: Which Potency does the source give for `O=C1CN(C(=O)COC(=O)c2cnc(Cl)c(Cl)c2)c2ccccc2N1` here?
Answer: Its Potency is inconclusive: 32.6 µM [activator, single point].

Question: Which Potency does the source give for `CC(=O)OCCNc1cc(Sc2nc3ccccc3[nH]2)c2nonc2c1[N+](=O)[O-]` here?
Answer: The Potency was inconclusive: 5.17 µM [inhibitor, partial curve, poor fit].

Question: For `O=C(CN1CCCC1c1ccc2c(c1)OCCO2)NC(=O)Nc1ccccc1` (stereo not given), which “activity change, negative = inhibition” value is on record?
Answer: The value was inactive: 10.6%.

Question: For `Cc1cc2c(NC(=O)Nc3ccc(C(F)(F)F)cc3)cccc2nn1`, which “activity change, negative = inhibition” value is on record?
Answer: Its value is inactive: 9.63%.

Question: For `CC(C)CNC(=O)c1cccc(NC(=O)COc2ccc([N+](=O)[O-])cc2)c1`, which Potency is on record?
Answer: The Potency was active: 20.6 µM.

Question: Which Potency does the source give for `Nc1c(C(O)(C(F)(F)F)C(F)(F)F)cc(C(O)(C(F)(F)F)C(F)(F)F)c2ccccc12` here?
Answer: The Potency was inconclusive: 14.6 µM [inhibitor, partial curve].

Question: With `CN(c1ccccc1)S(=O)(=O)c1cccc(C(=O)OCC(=O)Nc2ccc(C(N)=O)cc2)c1` as the compound, how does the Potency read?
Answer: Its Potency is inconclusive: 16.4 µM [inhibitor, single point].

Question: With `CC(C)[C@H](NC(=O)OC(C)(C)C)c1nnc(S(=O)(=O)Cc2c(F)cccc2Cl)o1` as the compound, how does the “activity change, negative = inhibition” value read?
Answer: Its value is inactive: -4.51%.

Question: Which Potency does the source give for `O=C(CSc1nc2cc(Cl)c(Cl)cc2[nH]1)c1ccc2c(c1)OCO2` here?
Answer: Its Potency is inconclusive: 4.61 µM [activator, full curve, poor fit].

Question: For `Cc1c(C)c2ccc(OCC(=O)NCCCn3ccnc3)cc2oc1=O`, which Potency is on record?
Answer: Its Potency is inconclusive: 16.4 µM [activator, partial curve, poor fit].

Question: Which Potency does the source give for `CC(C)c1ccc(NC(=O)c2ccc(Br)o2)cc1` here?
Answer: Its Potency is inconclusive: 6.51 µM [activator, partial curve].

Question: With `Nc1nnc(SCC(=O)c2ccccc2)s1` as the compound, how does the Potency read?
Answer: The Potency was inconclusive: 16.4 µM [activator, partial curve, poor fit].

Question: For `Cc1cc2cc(CN(Cc3ccco3)C(=S)NCC3CCCO3)c(=O)[nH]c2cc1C` (stereo not given), which Potency is on record?
Answer: Its Potency is inconclusive: 20.6 µM [inhibitor, single point].

Question: With `O=C(c1ccc(-c2cc3ccccc3oc2=O)cc1)N1CCN(c2ccc(Cl)cc2[N+](=O)[O-])CC1` as the compound, how does the Potency read?
Answer: Its Potency is active: 4.61 µM.
